Source: article PMC11730874
Results are given in words; binding and its absence hold for the method and conditions named. For some assays here: Binding seen in cells or lysates may run through a third protein. Some results given as binding are weak or reduced against the parent protein; the word gives no strength. Tags and fused reporters may be left off the sequences shown.

T1: His-SUMO-tagged WT hRab23_(7-172), GMPPNP-loaded (human) (UniProt Q9ULC3)
T1 sequence: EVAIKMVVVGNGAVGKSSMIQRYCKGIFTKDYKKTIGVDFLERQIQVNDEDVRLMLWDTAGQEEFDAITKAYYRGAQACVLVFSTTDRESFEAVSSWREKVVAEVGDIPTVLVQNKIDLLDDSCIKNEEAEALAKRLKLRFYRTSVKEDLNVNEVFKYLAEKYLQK

T2: Inturned (Intu), His-tagged (human) (UniProt Q9ULD6)
T2 sequence: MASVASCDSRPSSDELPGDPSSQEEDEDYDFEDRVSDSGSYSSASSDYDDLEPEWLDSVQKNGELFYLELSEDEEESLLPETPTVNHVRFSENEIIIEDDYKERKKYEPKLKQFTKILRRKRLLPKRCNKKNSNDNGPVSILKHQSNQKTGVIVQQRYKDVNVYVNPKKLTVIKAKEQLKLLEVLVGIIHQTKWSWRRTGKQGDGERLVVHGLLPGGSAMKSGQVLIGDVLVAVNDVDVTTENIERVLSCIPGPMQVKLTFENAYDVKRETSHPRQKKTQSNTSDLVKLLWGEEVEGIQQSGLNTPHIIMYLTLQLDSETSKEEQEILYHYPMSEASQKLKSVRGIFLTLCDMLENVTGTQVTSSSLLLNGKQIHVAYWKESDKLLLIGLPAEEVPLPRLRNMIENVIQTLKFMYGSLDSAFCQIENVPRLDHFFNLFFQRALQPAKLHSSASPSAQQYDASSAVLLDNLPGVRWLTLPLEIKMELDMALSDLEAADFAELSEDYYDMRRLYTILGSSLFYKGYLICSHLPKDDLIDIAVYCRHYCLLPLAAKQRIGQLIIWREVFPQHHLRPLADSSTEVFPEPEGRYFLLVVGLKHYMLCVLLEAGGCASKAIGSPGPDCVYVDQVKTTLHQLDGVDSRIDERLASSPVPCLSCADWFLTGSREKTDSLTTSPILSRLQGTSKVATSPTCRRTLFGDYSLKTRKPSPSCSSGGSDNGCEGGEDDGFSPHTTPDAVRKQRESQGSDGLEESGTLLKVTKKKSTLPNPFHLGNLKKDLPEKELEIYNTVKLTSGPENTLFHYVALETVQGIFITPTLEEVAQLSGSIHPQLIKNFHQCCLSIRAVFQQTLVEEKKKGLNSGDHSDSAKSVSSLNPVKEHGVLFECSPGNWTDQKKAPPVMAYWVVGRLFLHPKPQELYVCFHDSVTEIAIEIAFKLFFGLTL


Tests used:
[1] = target: T1, His-SUMO-tagged WT hRab23_(7-172), GMPPNP-loaded (human); test: pull-down; 1 ug GMPPNP-exchanged His-SUMO-Rab23 protein on Dynabeads His-tag magnetic beads, incubated overnight with 1 mg lysate of HEK293 cells overexpressing KIF17-mCitrine (lysis buffer with 0.5% Triton X-100; lysate treated with 20 uM GMPPNP, 4 °C, 1 h); Western blot with anti-KIF17; only the target purified
[2] = target: T2, Inturned (Intu), His-tagged (human); test: co-purification (Ni-NTA, ion exchange, SEC); Intu (His-tagged) and Fuz co-expressed in Hi-5 cells; Ni-NTA, TEV cleavage, HiTrap Q, Superdex 200 in 20 mM Tris pH 8.0, 200 mM NaCl, 1 mM DTT

binding [1] | binding [2] | Binder
binds |  | KIF17-mCitrine (protein, UniProt Q9P2E2 1-1029) MASEAVKVVVRCRPMNQRERELRCQPVVTVDCARAQCCIQNPGAADEPPKQFTFDGAYHVDHVTEQIYNEIAYPLVEGVTEGYNGTIFAYGQTGSGKSFTMQGLPDPPSQRGIIPRAFEHVFESVQCAENTKFLVRASYLEIYNEDVRDLLGADTKQKLELKEHPEKGVYVKGLSMHTVHSVAQCEHIMETGWKNRSVGYTLMNKDSSRSHSIFTISIEMSAVDERGKDHLRAGKLNLVDLAGSERQSKTGATGERLKEATKINLSLSALGNVISALVDGRCKHVPYRDSKLTRLLQDSLGGNTKTLMVACLSPADNNYDETLSTLRYANRAKNIRNKPRINEDPKDALLREYQEEIKKLKAILTQQMSPSSLSALLSRQVPPDPVQVEEKLLPQPVIQHDVEAEKQLIREEYEERLARLKADYKAEQESRARLEEDITAMRNSYDVRLSTLEENLRKETEAVLQVGVLYKAEVMSRAEFASSAEYPPAFQYETVVKPKVFSTTDTLPSDDVSKTQVSSRFAELPKVEPSKSEISLGSSESSSLEETSVSEAFPGPEEPSNVEVSMPTEESRSRYFLDECLGQEAAGHLLGEQNYLPQEEPQEVPLQGLLGLQDPFAEVEAKLARLSSTVARTDAPQADVPKVPVQVPAPTDLLEPSDARPEAEAADDFPPRPEVDLASEVALEVVRTAEPGVWLEAQAPVALVAQPEPLPATAGVKRESVGMEVAVLTDDPLPVVDQQQVLARLQLLEQQVVGGEQAKNKDLKEKHKRRKRYADERRKQLVAALQNSDEDSGDWVLLNVYDSIQEEVRAKSKLLEKMQRKLRAAEVEIKDLQSEFQLEKIDYLATIRRQERDSMLLQQLLEQVQPLIRRDCNYSNLEKILRESCWDEDNGFWKIPHPVITKTSLPVAVSTGPQNKPARKTSAADNGEPNMEDDRYRLMLSRSNSENIASNYFRSKRASQILSTDARKSLTHHNSPPGLSCPLSNNSAIPPTQAPEMPQPRPFRLESLDIPFTKAKRKKSKSNFGSEPL
 | binds | Fuzzy (Fuz) (protein, UniProt Q9BT04 1-418) MGEEGTGGTVHLLCLAASSGVPLFCRSSRGGAPARQQLPFSVIGSLNGVHMFGQNLEVQLSSARTENTTVVWKSFHDSITLIVLSSEVGISELRLERLLQMVFGAMVLLVGLEELTNIRNVERLKKDLRASYCLIDSFLGDSELIGDLTQCVDCVIPPEGSLLQEALSGFAEAAGTTFVSLVVSGRVVAATEGWWRLGTPEAVLLPWLVGSLPPQTARDYPVYLPHGSPTVPHRLLTLTLLPSLELCLLCGPSPPLSQLYPQLLERWWQPLLDPLRACLPLGPRALPSGFPLHTDILGLLLLHLELKRCLFTVEPLGDKEPSPEQRRRLLRNFYTLVTSTHFPPEPGPPEKTEDEVYQAQLPRACYLVLGTEEPGTGVRLVALQLGLRRLLLLLSPQSPTHGLRSLATHTLHALTPLL
